Measured values reported in patent US20210163598A1 (BEIJING PROTEOME RESEARCH CENTER, published 2021).
No constants are given. Whether binding was seen depends on the method and setting. Some binding calls cover weakened binding; strength is not graded here.

The chains behind the UniProt entries cited, without tags or fusion partners. Where a name states a change or a piece, a line headed by the entry shows the natural chain unless it says otherwise.
UniProt O00478: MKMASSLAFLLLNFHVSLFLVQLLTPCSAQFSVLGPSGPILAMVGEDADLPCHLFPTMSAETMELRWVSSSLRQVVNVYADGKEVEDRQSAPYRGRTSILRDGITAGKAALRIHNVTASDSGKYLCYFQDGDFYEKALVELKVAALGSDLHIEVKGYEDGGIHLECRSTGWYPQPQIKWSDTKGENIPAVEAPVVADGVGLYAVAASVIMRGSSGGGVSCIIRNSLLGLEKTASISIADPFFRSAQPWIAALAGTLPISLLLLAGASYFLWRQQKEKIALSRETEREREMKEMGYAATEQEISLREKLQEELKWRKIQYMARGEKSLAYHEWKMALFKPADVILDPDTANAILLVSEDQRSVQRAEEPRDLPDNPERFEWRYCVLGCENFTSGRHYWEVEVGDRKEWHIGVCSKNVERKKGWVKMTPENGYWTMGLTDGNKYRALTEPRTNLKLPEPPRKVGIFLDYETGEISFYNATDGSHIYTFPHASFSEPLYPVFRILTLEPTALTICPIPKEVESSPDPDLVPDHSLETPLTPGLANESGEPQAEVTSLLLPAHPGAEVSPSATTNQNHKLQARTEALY

What was measured:
[1] = target: BTN3A3 (Butyrophilin subfamily 3 member A3) expressed on the cell surface (BT474-BTN3A3; MDA-MB-231) (human) (UniProt O00478); assay: flow cytometric adhesion assay (FIG. 7(b))
[2] = target: BTN3A3 (Butyrophilin subfamily 3 member A3) expressed on the cell surface (BT474-BTN3A3; MDA-MB-231) (human) (UniProt O00478); assay: flow cytometric adhesion assay

- binding [1]: binds
- binding [2]: binds
B1: mouse LSECtin-Fc protein (Fc fusion, UniProt Q8BNX1 52-294, looked up)
chain: LLSSASSKLRVLLSHQDLLRTNASEQKMTLSSLKDDIGACRNCCSVTKAQLQTTLAEFKDIQAKLMEQESILKELQERVTQDLAKASRDRENIRSELFQALEAVKRQNSSCEQCPPSWLPFQGSCYYFSETQATWDTAQSYCGGQGAHLVIVRGLNEQGFLSQHTRGRGYWLGLRAVRHLNKIQGYRWVDGASLNFSHWNSGEPNDSRGHEDCIMMLHSGLWNDAPCTNERDGWICEKRSSCY
notes: also called murine LSECtin-Fc; murine LSECtin; not shown: Fc part
